Reference: patent US7700559B2, “Gonadotropin releasing hormone analogues conjugates with steroid hormones” (Medical Research Council, priority 2003, dated 2010)
At least one compound was matched to its structure with a doubt left. Non-standard residues stand in square brackets, D forms with d. Residues, ends and D or L forms follow the SMILES beside them. *: point of attachment. X1 = C[C@]12CC[C@H]3[C@@H](CCC4=CC(=O)CC[C@@]43C)[C@@H]1CC[C@@H]2C(=O)COC(=O)CCC(=O)*; dPhe(4-Cl) = N[C@H](Cc1ccc(Cl)cc1)C(=O)O; dPhe(4-F) = N[C@H](Cc1ccc(F)cc1)C(=O)O; d2Nal = N[C@H](Cc1ccc2ccccc2c1)C(=O)O; d3Pal = N[C@H](Cc1cccnc1)C(=O)O; ΔPro = O=C(O)[C@@H]1C=CCN1

Legend:
human GnRH receptor = molecular target: T1, human GnRH receptor (Homo sapiens, UniProt P30968); experiment: Whole cell binding assay, displacement of 125I-GnRH agonist from COS-7 cells transfected with the human GnRH receptor; details: COS-7 cells transfected with human GnRH receptor, 125I-GnRH agonist displacement; read-out: ED50, GnRH receptor whole cell binding
T1 construct: expressed in transfected cells; host or cells: COS-7 cells (whole cells)
T1 sequence (P30968 1-328): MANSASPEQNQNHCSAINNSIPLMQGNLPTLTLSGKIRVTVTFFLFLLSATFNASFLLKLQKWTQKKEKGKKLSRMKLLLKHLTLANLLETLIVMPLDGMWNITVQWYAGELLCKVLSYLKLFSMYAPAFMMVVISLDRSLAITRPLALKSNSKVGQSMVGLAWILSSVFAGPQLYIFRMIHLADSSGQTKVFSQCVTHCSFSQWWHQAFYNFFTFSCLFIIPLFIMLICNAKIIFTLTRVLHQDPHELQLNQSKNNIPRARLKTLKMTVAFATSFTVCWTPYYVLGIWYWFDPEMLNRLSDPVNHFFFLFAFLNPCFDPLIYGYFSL

rat type I GnRHR = molecular target: T2, rat type I GnRHR (Rattus norvegicus, UniProt P30969); experiment: Total inositol phosphate production in HEK293 cells stably expressing rat type I GnRHR; assay type: cell-based; details: GnRH 0.1 μM, read-out: IC50, inhibition of mammalian GnRH stimulated inositol phosphate production
T2 construct: expressed in transfected cells
T2 sequence (P30969 1-327): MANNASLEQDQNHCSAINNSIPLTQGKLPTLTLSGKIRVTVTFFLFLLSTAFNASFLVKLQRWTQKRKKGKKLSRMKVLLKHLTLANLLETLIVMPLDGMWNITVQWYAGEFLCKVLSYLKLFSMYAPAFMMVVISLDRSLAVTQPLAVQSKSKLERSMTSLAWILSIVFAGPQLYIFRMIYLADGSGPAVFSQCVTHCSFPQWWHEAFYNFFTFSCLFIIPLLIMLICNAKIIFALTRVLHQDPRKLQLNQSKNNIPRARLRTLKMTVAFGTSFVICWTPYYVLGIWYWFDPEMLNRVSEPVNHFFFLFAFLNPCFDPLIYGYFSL
Description: A HEK293 stable cell line expressing the rat type I GnRHR developed in our laboratory was used for the inositol phosphate production assays. This cell line was maintained in DMEM containing 10% fetal calf serum, glutamine and penicillin/streptomycin with the addition of G418 at 500 μg/ml throughout culture. Where required, plates were coated with Poly-L-Lysine to enhance adherence to plasticware during assay.
Measurement of Total Inositol Phosphate Production
Rat type I GnRH receptive expressing HEK293 cells were plated out onto 12 well plates and incubated at 37° C., 5% CO2 for 24 hours, then incubated in special DMEM containing 1% dialysed FCS (with glutamine and penicillin/streptomycin) and 1 μl/well of myo-[2-^3H]inositol for a further 48 hours. After aspiration of media and washing with incubation buffer, a further 500 μl buffer containing 10 mM LiCl was added to the plates and then incubated at 37° C. for 30 mins. 1 μM agonist was added to each well to a final concentration of 0.1 μM and the plates were incubated under the same conditions for a further 1 hour. The reaction was terminated with 500 μl 10 mM formic acid, incubated at 4° C. for 30 mins. […] After addition of formic acid, ammonium formate (1 ml, 0.1M, 1M) and vortexing, 800 μl of the supernatant was counted with scintillation fluid.

Question: What does the source list for `CC(=O)N[C@H](Cc1ccc2ccccc2c1)C(=O)N[C@H](Cc1ccc(Cl)cc1)C(=O)N[C@H](Cc1cccnc1)C(=O)N[C@@H](CO)C(=O)N[C@@H](CCCNC(=N)N)C(=O)N[C@H](CCCCNC(=O)CCC(=O)OCC(=O)[C@H]1CC[C@H]2[C@@H]3CCC4=CC(=O)CC[C@]4(C)[C@H]3CC[C@]12C)C(=O)N[C@@H](CC(C)C)C(=O)N[C@@H](CCCNC(=N)N)C(=O)N1CCC[C@H]1C(=O)N[C@H](C)C(N)=O` [antagonist A-progesterone, AcD-Nal-D-Cpa-D-Pal-Ser-Arg-D-Lys-Leu-Arg-Pro-D-Ala-NH2 conjugated to 21-hydroxyprogesterone 21-succinate at the ε amine of D-Lys at position 6] (Ac-[d2Nal][dPhe(4-Cl)][d3Pal]SR[dK](X1)LRP[dA]-NH2)?
Answer: EC50 (human GnRH receptor): 0.11 µM; IC50 (rat type I GnRHR): 0.097 µM

Question: Which results are given for `CC(=O)N1CC=C[C@H]1C(=O)N[C@H](Cc1ccc(F)cc1)C(=O)N[C@H](Cc1c[nH]c2ccccc12)C(=O)N[C@@H](CO)C(=O)N[C@@H](Cc1ccc(O)cc1)C(=O)N[C@H](CCCCNC(=O)CCC(=O)OCC(=O)[C@H]1CC[C@H]2[C@@H]3CCC4=CC(=O)CC[C@]4(C)[C@H]3CC[C@]12C)C(=O)N[C@@H](CC(C)C)C(=O)N[C@@H](CCCNC(=N)N)C(=O)N1CCC[C@H]1C(=O)NCC(N)=O` [antagonist B-progesterone, Ac-ΔPro-D-Fpa-D-Trp-Ser-Tyr-D-Lys-Leu-Arg-Pro-Gly-NH2 conjugated to 21-hydroxyprogesterone 21-succinate at the ε amine of D-Lys at position 6] (Ac-[ΔPro][dPhe(4-F)][dW]SY[dK](X1)LRPG-NH2)?
Answer: EC50 (human GnRH receptor): 0.11 µM; IC50 (rat type I GnRHR): 0.086 µM
